The values below come from PubChem BioAssay AID330 (DTP/NCI, 2004).

The assay deals with P388 leukemia ip, CD2F1 mice, survival T/C. The experiment in a line: NCI In Vivo Anticancer Drug Screen. Data for tumor model P388 Leukemia (intraperitoneal) in CD2F1 (CDF1) mice. The note with it: T/C endpoint: median survival time, higher T/C = longer survival.
Where [1] appears, read: dose: 400.0 mg/kg/injection, schedule: Q04DX002 (ip), vehicle: saline with Tween-80.
Where [2] appears, read: dose: 200.0 mg/kg/injection, schedule: Q01DX005 (ip), vehicle: saline with Tween-80.
[3] abbreviates: dose: 50.0 mg/kg/injection, schedule: Q01DX009 (ip), vehicle: saline with Tween-80.
[4] abbreviates: dose: 100.0 mg/kg/injection, schedule: Q01DX009 (ip), vehicle: saline with Tween-80.
[5] abbreviates: dose: 200.0 mg/kg/injection, schedule: Q01DX009 (ip), vehicle: saline with Tween-80.
The mark [6] stands for this setting: dose: 100.0 mg/kg/injection, schedule: Q01DX005 (ip), vehicle: saline with Tween-80.
Where [7] appears, read: dose: 200.0 mg/kg/injection, schedule: Q01DX005 (ip), vehicle: saline.
The mark [8] stands for this setting: dose: 50.0 mg/kg/injection, schedule: Q01DX009 (ip), vehicle: other.
Where [9] appears, read: dose: 50.0 mg/kg/injection, schedule: Q01DX009 (ip), vehicle: Klucel (hydroxypropylcellulose) (HPC).
The mark [10] stands for this setting: dose: 100.0 mg/kg/injection, schedule: Q01DX005 (ip), vehicle: Klucel (hydroxypropylcellulose) (HPC).
The mark [11] stands for this setting: dose: 400.0 mg/kg/injection, schedule: Q01DX009 (ip), vehicle: Klucel (hydroxypropylcellulose) (HPC).
Where [12] appears, read: dose: 200.0 mg/kg/injection, schedule: Q01DX005 (ip), vehicle: Klucel (hydroxypropylcellulose) (HPC).

The list is a part of this screen's results and no random one: it is rich in T/C values a quarter to a half above the control, in often repeated tests (any T/C) and in doses without a T/C. Further doses and runs are listed elsewhere. T/C gives the treated animals as a percentage of the vehicle group. Some entries give survivors of the animals treated and no T/C: the source holds a T/C of zero for them, seemingly a mark for toxic or unscored doses. Some survivor counts are full or nearly so, which does not show that the dose was tolerated: survival well below the control is almost never listed, so the zero probably covers shortened survival too. Survivors were counted at the toxicity check, usually on the fifth day, unless a day is given; later deaths do not show. Schedules are NCI's codes, taken here to give the interval after Q, in days (D) or hours (H), and the number of doses after X. Counts like (3×) give the number of equal values in this list. Some entries were tested several times; the values are given in rising order. For survival time, the PubChem record calls one and a half times the control and up active, and a quarter to a half above the control has no call in these data; cut-offs in other NCI protocols can differ.

For the compound `CC1CC(C)S(=O)CS1` (stereo not drawn), under setting [1], the survivor count was 0 of 6.
In the case of `Cc1ccccc1-n1c(=S)n(-c2ccccn2)c2nc3ccccc3nc1/c2=N/Nc1ccccn1`, under setting [2], the survivor count was 3 of 6.
Turning to `CNCc1c(O)ccc2c(-c3ccccc3)cc(=O)oc12`, under setting [1], the survivor count is listed as 2 of 6.
`N#CCc1noc2ccccc12`: the survivor count runs as follows: under setting [3], 1 of 6 and 2 of 6; under setting [4], 0 of 6; under setting [5], 0 of 6.
For the compound `Ic1ccccc1C[N+]12CN3CN(CN(C3)C1)C2`, where the note is “dose: 400.0 mg/kg/injection, schedule: Q04DX003 (ip), vehicle: saline with Tween-80”, the survivor count is given as 3 of 6.
With `O=C(N=Nc1c(Cl)c(O)c2ccccc2c1O)C(=O)Nc1ccc(Cl)c([N+](=O)[O-])c1`, the survivor count under setting [5] is given as 2 of 6.
Regarding `CNC(=O)OCC1=C(Sc2ccccc2)C(=O)C(OC)=C(OC)C1=O`, the survivor count is, setting by setting: under setting [6], 0 of 6; under setting [2], 0 of 6.
In the case of `CC(=NCc1ccccc1)NO`, the survivor count under setting [7] is listed as 1 of 6.
In the case of `O=C1C2C3C=CC(C2C(=O)N1CN1CCOCC1)C1C2C(=O)N(CN4CCOCC4)C(=O)C2C31` (stereo not drawn), the T/C runs as follows: (dose: 25.0 mg/kg/injection, schedule: Q01DX009 (ip), vehicle: saline with Tween-80) 125 % of control; under setting [3], 141 and 148 % of control. Moreover, the survivor count under setting [5] was 3 of 6 and 4 of 6.
As for `Cc1cc(NCCCCNCCCNc2cc(C)nc3cc(N)ccc23)c2ccc(N)cc2n1`, the T/C (dose: 6.25 mg/kg/injection, schedule: Q01DX009 (ip), vehicle: other) is 132 % of control. The survivor count reads like this: under setting [8], 0 of 6; (dose: 100.0 mg/kg/injection, schedule: Q01DX009 (ip), vehicle: other) 0 of 6.
Turning to `ClCCn1c(CCl)nc2ccc(Cl)cc21`, the survivor count under setting [9] is listed as 5 of 6.
Consider `CSC(=Cc1ccc2cc(Br)ccc2[n+]1C)SC`, for which, under “dose: 12.5 mg/kg/injection, schedule: Q01DX009 (ip), vehicle: Klucel (hydroxypropylcellulose) (HPC)”, the T/C is 125 and 127 % of control. In addition, the survivor count runs as follows: (dose: 25.0 mg/kg/injection, schedule: Q01DX009 (ip), vehicle: Klucel (hydroxypropylcellulose) (HPC)) 0 of 6; under setting [9], 1 of 6; (dose: 100.0 mg/kg/injection, schedule: Q01DX009 (ip), vehicle: Klucel (hydroxypropylcellulose) (HPC)) 0 of 6; (dose: 200.0 mg/kg/injection, schedule: Q01DX009 (ip), vehicle: Klucel (hydroxypropylcellulose) (HPC)) 0 of 6.
Take `CC(C)OC(=O)C#N`: the survivor count (dose: 25.0 mg/kg/injection, schedule: Q01DX005 (ip), vehicle: saline with Tween-80) was 0 of 6; the survivor count (dose: 50.0 mg/kg/injection, schedule: Q01DX005 (ip), vehicle: saline with Tween-80) is reported as 0 of 6; the survivor count under setting [6] is listed as 0 of 6; the survivor count under setting [2] is 0 of 6.
With `CC(=O)Oc1ccc(OC(C)=O)c2c(OC(C)=O)c(C3CCC(C)(C)O3)cc(OC(C)=O)c12` (stereo not drawn), the survivor count (dose: 50.0 mg/kg/injection, schedule: Q04DX002 (ip), vehicle: saline with Tween-80) is 1 of 6.
On to `CCSC(C(OC(C)=O)C(OC(C)=O)C(OC(C)=O)C(COC(C)=O)OC(C)=O)n1cnc2c(=S)nc[nH]c21` (stereo not drawn), for which, under setting [6], the survivor count was 6 of 6.
For the compound `Cc1[nH]c(=O)[nH]c(=O)c1/C=C/C(=O)NC(CO)CSCc1ccccc1` (stereo not drawn), under setting [8], the survivor count is given as 5 of 6.
In the case of `O=C(CNNC(=O)c1ccncc1)Nc1ccc(S(=O)(=O)c2ccc(NC(=O)CNNC(=O)c3ccncc3)cc2)cc1`, the survivor count under setting [10] was 5 of 5 and 6 of 6.
For `CCOC(CNC(C)c1ccc2cc(OC)c(OC)cc2c1)OCC` (stereo not drawn), the T/C under setting [11] was 142 % of control.
For `CN(C)c1nc(N(C)C)oc(=[N+](C)C)n1`, the survivor count is reported as 0 of 6 (dose: 50.0 mg/kg/injection, schedule: Q01DX005 (ip), vehicle: saline); 0 of 6 (dose: 100.0 mg/kg/injection, schedule: Q01DX005 (ip), vehicle: saline); 0 of 6 under setting [7].
Consider `NCc1c(Cl)c(Cl)c(CN)c(Cl)c1Cl`, for which the survivor count under setting [5] is listed as 3 of 6.
As for `C/[N+]([O-])=N\Nc1ccccc1SCCSc1ccccc1N/N=[N+](\C)[O-]`, the survivor count (dose: 240.0 mg/kg/injection, schedule: Q01DX005 (ip), vehicle: Klucel (hydroxypropylcellulose) (HPC)) is on record as 6 of 6.
Turning to `COc1cc2c(cc1OC)[C@H]1[C@H](CO)c3ccc4c(c3CN1CC2)OCO4`, the survivor count is, setting by setting: under setting [10], 0 of 5; under setting [12], 0 of 5.
Turning to `CSC(=S)N/N=C(\C)c1ccc[nH]1`, the survivor count under setting [12] is listed as 6 of 6.
Turning to `COc1cccc2c1C(=O)c1c(O)c3c(c(O)c1C2=O)C[C@@](O)(C(C)O)C[C@@H]3OC1CC(N(C)C)C(O)C(C)O1` (stereo partly drawn), the T/C by setting is: (dose: 0.2 mg/kg/injection, schedule: Q01DX009 (ip), vehicle: water) 136 % of control; (dose: 0.78 mg/kg/injection, schedule: Q01DX009 (ip), vehicle: water) 131 % of control; (dose: 4.7 mg/kg/injection, schedule: Q04DX003 (ip), vehicle: water) 129 % of control; (dose: 18.8 mg/kg/injection, schedule: Q04DX003 (ip), vehicle: water) 138 % of control; (dose: 37.5 mg/kg/injection, schedule: Q04DX003 (ip), vehicle: water) 138 % of control. Also, the survivor count was 3 of 3 and 6 of 6 (dose: 12.5 mg/kg/injection, schedule: Q01DX009 (ip), vehicle: water); 3 of 3 (dose: 25.0 mg/kg/injection, schedule: Q01DX009 (ip), vehicle: water).
Take `c1ccc(C(=C2C(=C(c3ccccc3)c3ccccc3)c3nc4ccccc4nc32)c2ccccc2)cc1`: the survivor count reads like this: (dose: 30.0 mg/kg/injection, schedule: Q01DX005 (ip), vehicle: saline with Tween-80) 6 of 6 (2×); (dose: 60.0 mg/kg/injection, schedule: Q01DX005 (ip), vehicle: saline with Tween-80) 6 of 6 (2×); (dose: 120.0 mg/kg/injection, schedule: Q01DX005 (ip), vehicle: saline with Tween-80) 6 of 6.
As for `CC1OC(OC2C(OC3C[C@@]4(C)C(C[C@H](O)[C@H]5[C@H](C6(C)CCC(C(C)(C)O)O6)CCC54C)[C@]4(C)CC[C@@H](O)C(C)(C)C34)OC(CO)C(O)C2O)C(O)C(O)C1O` (stereo partly drawn) (tested in a mixture with another compound), the survivor count under setting [11] is 1 of 6.
As for `CC(=O)NCCSSCc1ccccc1CS(=O)O`, under “dose: 200.0 mg/kg/injection, schedule: Q01DX005 (ip), vehicle: suspension in saline”, the survivor count is 3 of 6.
Turning to `CCC(C)/C(=C\C#N)NCCCCCCN/C(=C/C#N)C(C)CC` (stereo not drawn), the survivor count (dose: 60.0 mg/kg/injection, schedule: Q01DX005 (ip), vehicle: Klucel (hydroxypropylcellulose) (HPC)) was 6 of 6 and the survivor count (dose: 120.0 mg/kg/injection, schedule: Q01DX005 (ip), vehicle: Klucel (hydroxypropylcellulose) (HPC)) was 6 of 6.
For `CSc1ccc(NC(=O)ON2C(=O)c3ccccc3C2=O)cc1`, the survivor count under setting [3] is reported as 6 of 6, the survivor count under setting [4] is on record as 6 of 6 and the survivor count under setting [5] was 4 of 6.
For `COc1cc(NS(C)(=O)=O)ccc1Nc1c2ccc([N+](=O)[O-])cc2nc2c(C)cccc12`, the survivor count is given as 6 of 6 (dose: 12.0 mg/kg/injection, schedule: Q01DX009 (ip), vehicle: saline with Tween-80); 6 of 6 (dose: 18.0 mg/kg/injection, schedule: Q04DX003 (ip), vehicle: saline with Tween-80); 6 of 6 (dose: 25.0 mg/kg/injection, schedule: Q04DX003 (ip), vehicle: saline sonified); 5 of 6 (dose: 50.0 mg/kg/injection, schedule: Q04DX003 (ip), vehicle: saline sonified); 4 of 6 (dose: 100.0 mg/kg/injection, schedule: Q04DX003 (ip), vehicle: saline sonified).
As to `CCCCN(CCCC)CCC(O)c1cc2c(Cl)cc(Cl)cc2c2cc(C(F)(F)F)ccc12` (stereo not drawn), the survivor count under setting [5] is 6 of 6.
